Among the data in PubChem BioAssay AID2685 (National Center for Advancing Translational Sciences (NCATS), 2010) are cell number change and AC50 values, retold here.

The nature of this experiment: qHTS Assay for Lipid Storage Modulators in Drosophila S3 Cells.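 On cell number change: cells counted by Cell Tracker Red CMTPX staining in the red channel.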 The following applies: BODIPY lipid droplet fluorescence, 18-24 h; for cell number change: measured here: cell count max response, cells fed with added oleic acid. Put shortly:
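Drosophila S3 cells got compounds at several concentrations plus oleic acid (400 uM solution). Laser-scanning cytometry with 488 nm excitation read lipid droplets at 500-530 nm and cells at 575-640 nm. Percent activity was relative to 20 uM Triacsin C.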

The mark [1] stands for this setting: measured here: lipid fluorescence (Fed channel) AC50, cells fed with added oleic acid.
[2] abbreviates: measured here: cell number channel AC50, cells fed with added oleic acid.

The list shows a part of the results. These are further read-outs of the screen, such as a control signal, another cell line or another target. No call is given for them. Most of these compounds were active or inconclusive in the main read-out, so they are no random draw. Potencies come from curve fits of mixed quality, noted in brackets. Where a SMILES comes first, the peptide text is derived from it. The star is where a group is joined. OPac = O=C(CO*)c1ccccc1; Bz = O=C(c1ccccc1)*

A word on the AC50: it is the concentration at which the activity in the assay is half-maximal. Take `CCc1nnc(NC(=O)C2CCCN(S(=O)(=O)c3ccc(OC)cc3)C2)s1` (stereo not given): the cell number change was -18.9%. The AC50 under setting [1] is 2.31 µM [falling, partial curve, poor fit]. As for `CN(C)/C=N/c1c(C#N)cnn1-c1nc2ccccc2s1`, the AC50 under setting [2] was 3.66 µM [rising, partial curve] and the AC50 under setting [1] is 4.61 µM [rising, partial curve]. With `COc1cc(NC(=O)c2cc(CC(C)C)on2)c(OC)cc1Cl`, the cell number change was found to be 26.7%. Moreover, the AC50 under setting [1] is 1.84 µM [rising, full curve]. Consider `Cc1ccc(S(=O)(=O)CCC(=O)OCC(=O)N(Cc2ccccc2)C(C)C)cc1`, for which the cell number change is -9.66%. Further, under setting [1], the half-maximal activity concentration (AC50) is 0.116 µM [falling, full curve, poor fit].

Regarding `COc1c(/C=C2\SC(=Nc3ccccc3Cl)NC2=O)cccc1[N+](=O)[O-]`, the cell number change is -47%. In addition, the AC50 under setting [2] was 8.2 µM [falling, partial curve, poor fit]. As for `CCN1CCCC1CNC(=O)C(=O)NC(C)c1ccccc1` (stereo not given), the cell number change is 3.4%. The AC50 under setting [1] was 29.1 µM [rising, single point]. Consider `Cc1nn(C)c(C)c1NS(=O)(=O)c1ccccc1`, for which the cell number change amounted to 9.5%. For the same compound, the AC50 under setting [1] is 2.59 µM [falling, full curve]. Regarding `CC(NC(=O)c1cc2c(cc1Cl)N1CCCCCC1=NS2(=O)=O)c1ccc(S(N)(=O)=O)cc1` (stereo not given), the cell number change is -31%. Also, the AC50 under setting [2] is 4.11 µM [falling, full curve, poor fit]. As to `Cc1cc(C)c2[nH]c(=O)c(C(c3nnnn3Cc3ccc4c(c3)OCO4)N3CCCC3)cc2c1` (stereo not given), the AC50 is, setting by setting: under setting [2], 5.8 µM [rising, single point]; under setting [1], 0.92 µM [rising, full curve]. For the compound `CCc1ccccc1NC(=O)N[C@@H](C)C(=O)O`, the AC50 under setting [2] is 0.651 µM [falling, single point]. `COc1ccc(CNC(=O)CCC(=O)c2ccccc2)cc1`: the cell number change is -30.8%. The AC50 under setting [2] is 2.59 µM [falling, full curve, poor fit]. Take `COc1ccc(NC(=O)CN(C)C(=O)c2ccccc2OCC(=O)Nc2cccc(C(F)(F)F)c2)cc1`: the AC50 under setting [1] was 3.26 µM [rising, single point]. Take `O=C(CSc1nnc(-c2cccs2)n1-c1ccccc1)Nc1ccccc1`: the cell number change is -11.3%. Further, the AC50 under setting [2] is 5.8 µM [falling, single point]. In addition, under setting [1], the AC50 was 6.51 µM [falling, single point]. As for `C[C@H](NC(=O)COc1ccc(Cl)cc1)C(=O)N1CCC2(CC1)NCCc1[nH]cnc12`, the cell number change stood at 64.7%. For the same compound, the AC50 under setting [2] was 32.6 µM [rising, single point]. Also, the AC50 under setting [1] was 10.3 µM [rising, partial curve]. Consider `O=C(c1ccc(F)cc1)c1cn[nH]c1-c1ccccc1O`, for which the cell number change was -7.25%. Besides, under setting [1], the AC50 was 1.84 µM [falling, single point]. On to `COc1cccc(NC(=O)CSc2nc3ncc(Br)cc3[nH]2)c1`, for which the cell number change was -11.3%. For the same compound, the AC50 under setting [1] was 4.11 µM [falling, single point]. For `O=C(CNC(=O)c1ccccc1)NCC(=O)OCC(=O)c1ccccc1` (Bz-Gly-Gly-OPac), the cell number change turned out to be 10.6%. Also, under setting [1], the AC50 is 29.1 µM [falling, single point]. In the case of `C=CCc1c(C)nc2cc(-c3ccccc3)[nH]n2c1=O`, the AC50 under setting [1] was 6.51 µM [rising, partial curve]. For the compound `CCCCn1c(=O)c(C(=O)OCC)c(O)c2ccccc21`, the cell number change turned out to be 42.9%. Also, the half-maximal activity concentration (AC50) under setting [2] was 0.116 µM [rising, full curve]. For the same compound, the AC50 under setting [1] is 25.9 µM [falling, partial curve].

As for `CCOC(=O)N1CCN(Cc2nc3c(c(=O)n(C)c(=O)n3C)n2CCC(C)C)CC1`, the cell number change was -1.63%. The AC50 under setting [2] is 0.82 µM [falling, full curve, poor fit]. The concentration at half-maximal activity (AC50) under setting [1] is 0.82 µM [falling, full curve]. Consider `O=C(CCOc1ccccc1)NCC(c1ccco1)N1CCCCC1` (stereo not given), for which the cell number change is -5.17%. The AC50 under setting [1] was 29.1 µM [falling, single point].

Regarding `CCN1CCN(C(=O)C2CCN(Cc3nc(-c4cccc(Cl)c4)oc3C)CC2)CC1`, the cell number change stood at 15.4%. For `Cc1cccc2cc(C(c3nnnn3Cc3ccccc3)N3CCCc4ccccc43)c(=O)[nH]c12` (stereo not given), the AC50 was 3.66 µM [rising, single point] under setting [2] and 3.66 µM [rising, partial curve] under setting [1]. Regarding `C[C@@H]1C=C(C(=O)NCc2nc3ccccc3[nH]2)O[C@H](OCc2ccc(CO)cc2)C1`, the cell number change is -5.68%. Further, the AC50 under setting [1] is 0.411 µM [rising, single point]. With `COc1ccc(NC(=O)COc2ccc(CNCCCN3CCOCC3)cc2OC)cc1`, the cell number change is -17.4%. As to `COCCNC(=O)Cc1c(C)c2cc3c(cc2oc1=O)OC(C)(C)CC3`, the cell number change is -22.9%. Also, the AC50 under setting [1] was 29.1 µM [falling, single point]. In the case of `CC1CCCN(CC(=O)Nc2ccc(S(=O)(=O)N3CCCCCC3)cc2)C1` (stereo not given), the cell number change came to 7.01%. On the same count and under the same terms, in the case of `OCCN1CCN(CC(O)COCC2COc3ccccc3O2)CC1` (stereo not given) it was -28.1%.

For `O=C(CN1CCN(c2ccccc2O)CC1)NC(=O)NC1CCCC1`, the cell number change is -6.64%. Under setting [1], the AC50 was 0.164 µM [falling, full curve, poor fit].

On to `CC(C)CCN1C(=O)C2(OCCCO2)c2cc(Cl)ccc21`, for which the cell number change came out at 25.4%. Under setting [1], the AC50 was 29.1 µM [rising, single point]. For `Cc1oc(CC(C)C)c(CN)c1C(=O)O`, the cell number change is -25.9%. Under setting [1], the AC50 was 0.517 µM [falling, full curve]. For `O=c1[nH][nH]c(C(F)(F)F)c1C=NCc1ccc(Cl)cc1`, the cell number change was determined as 23.6%. The AC50 under setting [1] is 16.4 µM [rising, partial curve]. Turning to `COc1ccc(-n2c(Cc3cccn3C)nnc2SCC(=O)NC2CCCC2)cc1`, under setting [1], the AC50 is 0.00517 µM [falling, full curve, poor fit].

For `CCCCN(C(=O)CSc1cc(C)c2ccc(OC)cc2n1)c1c(N)n(Cc2ccccc2)c(=O)[nH]c1=O`, the cell number change stood at 17.2%.

In the case of `O=C(c1ccccc1)C(c1ccccc1)c1ccccc1`, the cell number change is -48.4%. Besides, the AC50 under setting [2] is 1.46 µM [falling, partial curve, poor fit]. The AC50 under setting [1] was 0.00517 µM [falling, full curve, poor fit]. For the compound `CCCCOc1ccc(C(=O)CCN2CCCCC2)cc1`, the cell number change was -19.2%. Under setting [1], the concentration at half-maximal activity (AC50) is 5.8 µM [falling, partial curve].

Take `COc1ccc(N/N=C(/C#N)S(=O)(=O)C(C)(C)C)cc1`: the half-maximal activity concentration (AC50) under setting [1] was 5.17 µM [rising, single point]. With `CCCc1ccc(OCc2ccc(C(=O)N/N=C/c3cccc([N+](=O)[O-])c3)o2)c(OC)c1`, the cell number change is -33.5%. Besides, under setting [2], the concentration at half-maximal activity (AC50) is 4.61 µM [falling, full curve, poor fit]. For `COc1ccc(NC(=O)C2CCN(c3cnccn3)CC2)cc1OC`, the cell number change was -2.92%. Also, under setting [1], the AC50 was 0.13 µM [rising, full curve, poor fit].

As for `CCC(=O)N1CCN(CCN=CC2=C(O)CC(c3cccs3)CC2=O)CC1` (stereo not given), the cell number change is -11.8%. In addition, the AC50 under setting [1] was 0.206 µM [falling, full curve, poor fit].

Consider `O=C(N/N=C/c1ccccc1OC(F)F)NC1CCCCC1`, for which the cell number change is -12%. Under setting [1], the AC50 was 0.00461 µM [rising, full curve, poor fit].

Consider `Cc1ccc(C(=O)NNC(=O)c2ccc(S(=O)(=O)N(C)c3ccccc3)cc2)cc1`, for which the cell number change worked out at 18.1%. In addition, the AC50 under setting [1] was 4.11 µM [rising, partial curve, poor fit]. Consider `COC(=O)C1=C(C)NC(=O)C1(Nc1ccc(Cl)cn1)C(F)(F)F` (stereo not given), for which the cell number change is 11.6%. Also, the AC50 under setting [2] was 1.46 µM [falling, partial curve]. Regarding `CC1CCN(CCc2nc3cc(NC(=O)COc4ccccc4)ccc3n2C)CC1`, the cell number change was 8.02%. On to `COc1cc(-c2nnc(-c3ccco3)o2)ccc1OCc1ccccc1`, for which the cell number change is -22.3%. Also, the AC50 under setting [1] was 29.1 µM [falling, single point]. As to `Cc1c(C(=O)OCC(=O)NC2CC2)oc2ccc(Br)cc12`, the cell number change amounted to 15.7%.

Consider `CC1CC(C)CN(CC(=O)Nc2ccc(S(N)(=O)=O)cc2)C1` (stereo not given), for which the cell number change is -88.6%. The AC50 under setting [2] was 1.84 µM [falling, partial curve]. As to `Cc1ccc(C(=O)N2c3ccccc3N(Cc3ccccc3)C(=O)C2(C)C)cc1`, the cell number change came out at 50.7%. Further, the AC50 under setting [2] was 16.4 µM [rising, single point]. Also, the AC50 under setting [1] is 5.8 µM [rising, single point].

Take `CSc1ccc(C(=O)C2CCCN(C(=O)c3nn(C)c(=O)c4ccccc34)C2)cc1` (stereo not given): the cell number change was -18.2%.

Take `Cc1cc2ncn(/N=C/c3ccc4c(c3)OCO4)c2cc1C`: under setting [1], the AC50 was 20.6 µM [falling, single point]. The same measure, in the same setting: with `O=C(Nc1ccc(OC(F)(F)F)cc1)c1ccc2ccccc2n1` the figure was 29.1 µM [rising, single point]. Take `CCCCNC(=O)c1cc2cc(CC)ccc2[nH]1`: the cell number change was found to be 18.1%. Further, the AC50 under setting [1] is 5.8 µM [rising, full curve, poor fit].

Regarding `Cc1cccc(C(=O)Nc2ccc(C(=O)N/N=C/c3ccc4c(c3)OCO4)cc2)c1`, the cell number change worked out at 53%. Also, the AC50 under setting [2] is 20.6 µM [rising, single point]. In the case of `C#CC(CC)(CC)NC(=O)Nc1ccccc1C(=O)OC`, the AC50 under setting [2] was 3.26 µM [rising, single point].

Consider `O=C1CC(SC(=NCc2ccc3c(c2)OCO3)Nc2ccccc2)C(=O)N1c1ccccc1` (stereo not given), for which the cell number change was found to be 84.6%. Under setting [2], the half-maximal activity concentration (AC50) was 5.8 µM [rising, full curve]. The AC50 under setting [1] is 2.31 µM [rising, partial curve].

As for `O=C(N/N=C/c1c[nH]c2ccc(Br)cc12)c1ccccn1`, the cell number change came to 6.12%. The concentration at half-maximal activity (AC50) under setting [2] was 6.51 µM [rising, single point]. Further, the AC50 under setting [1] was 6.51 µM [rising, partial curve, poor fit]. Regarding `Cc1ccc(-n2ncc3c2CCCC3NC(=O)CCc2cnn(C)c2)cc1C` (stereo not given), the cell number change is -12.1%. Further, the half-maximal activity concentration (AC50) under setting [1] is 25.9 µM [falling, single point].

Consider `Cc1nn(Cc2ccc(F)cc2)c2sc(C(=O)Nc3nccs3)cc12`, for which the cell number change was -15%. Besides, the half-maximal activity concentration (AC50) under setting [1] was 2.06 µM [falling, partial curve, poor fit]. Take `COC(C(=O)N/N=C(\C)CC(=O)Nc1ccc(Cl)cc1C)c1ccccc1` (stereo not given): the cell number change amounted to 8.23%. The AC50 under setting [1] is 1.3 µM [rising, partial curve].
